Experimental data taken from article PMC10216445.
No constants are given. Whether binding was seen depends on the method and setting.

Amino acid sequences for entries named in this document (tags omitted).
UniProt P20789: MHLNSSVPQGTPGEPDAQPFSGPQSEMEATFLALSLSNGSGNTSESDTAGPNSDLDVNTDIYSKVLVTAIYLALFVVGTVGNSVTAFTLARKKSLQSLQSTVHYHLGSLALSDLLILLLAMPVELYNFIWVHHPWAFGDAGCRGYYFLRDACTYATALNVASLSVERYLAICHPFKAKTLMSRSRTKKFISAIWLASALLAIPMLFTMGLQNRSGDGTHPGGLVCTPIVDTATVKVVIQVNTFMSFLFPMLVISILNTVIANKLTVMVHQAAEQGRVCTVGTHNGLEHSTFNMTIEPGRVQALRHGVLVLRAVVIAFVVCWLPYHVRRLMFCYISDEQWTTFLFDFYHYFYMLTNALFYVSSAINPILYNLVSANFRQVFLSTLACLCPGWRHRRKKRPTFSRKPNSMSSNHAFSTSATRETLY

Target: rat Neurotensin Receptor Type 1, C-terminal HRV3C-eGFP-His6 fusion (Rattus norvegicus) (UniProt P20789)
Assay: SEC; fluorescence-detection SEC (FSEC), SRT-C SEC-300 HPLC column, 0.5 mL/min; sample from baculovirus-infected ExpiSf cells at 27 and 32 °C, solubilised in DDM, partially purified on Ni-NTA; the discussion says the same of Sf9 and High Five cells (DDM and DDM/CHS, no ligands added); both purified

binding: no binding
Substance: rat Neurotensin Receptor Type 1, C-terminal HRV3C-eGFP-His6 fusion (from UniProt P20789 1-424)
